Results are given in words; binding and its absence hold for the method and conditions named. In cells and extracts the contact can be indirect. Some results given as binding are weak or reduced against the parent protein; the word gives no strength. Blank lines part the entries; values can stand above or below the molecule they belong to.
Key:
[1] = molecular target: T1, Lipin1 (human (endogenous in NCI-H929)) (UniProt Q14693); experiment: co-IP; NCI-H929 cell lysates, anti-XPO1 or anti-Lipin1 antibody, Protein A/G agarose beads, 4 °C overnight; each reaction supplemented with 5 μM Ran-GTP (Ran (Q69L) mutant); Western blot
T1 sequence: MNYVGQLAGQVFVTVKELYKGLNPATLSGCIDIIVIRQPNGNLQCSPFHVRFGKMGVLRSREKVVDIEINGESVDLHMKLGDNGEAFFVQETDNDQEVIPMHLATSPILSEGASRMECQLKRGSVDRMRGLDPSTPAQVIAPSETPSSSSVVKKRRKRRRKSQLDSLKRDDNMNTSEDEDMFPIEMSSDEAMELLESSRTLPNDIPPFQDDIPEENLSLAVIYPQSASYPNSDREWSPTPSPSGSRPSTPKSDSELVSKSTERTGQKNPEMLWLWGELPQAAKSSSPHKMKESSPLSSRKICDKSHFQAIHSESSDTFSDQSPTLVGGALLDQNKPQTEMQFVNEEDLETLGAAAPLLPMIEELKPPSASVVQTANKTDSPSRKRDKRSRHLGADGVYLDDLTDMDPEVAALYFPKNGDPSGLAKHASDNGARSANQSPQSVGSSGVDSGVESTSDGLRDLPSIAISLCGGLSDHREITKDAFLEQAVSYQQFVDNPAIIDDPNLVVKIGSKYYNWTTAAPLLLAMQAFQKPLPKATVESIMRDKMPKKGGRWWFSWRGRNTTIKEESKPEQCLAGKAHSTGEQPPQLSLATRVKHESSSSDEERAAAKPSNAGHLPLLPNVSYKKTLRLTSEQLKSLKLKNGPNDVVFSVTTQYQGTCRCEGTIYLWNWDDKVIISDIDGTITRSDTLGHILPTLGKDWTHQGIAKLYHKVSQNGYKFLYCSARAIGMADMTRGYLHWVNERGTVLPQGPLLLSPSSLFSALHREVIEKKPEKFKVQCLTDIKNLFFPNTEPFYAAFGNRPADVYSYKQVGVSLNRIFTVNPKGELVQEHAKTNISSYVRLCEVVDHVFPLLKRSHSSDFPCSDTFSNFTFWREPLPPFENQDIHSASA

By UniProt entry, the sequences of proteins in these tests, tags left out.
UniProt O14980: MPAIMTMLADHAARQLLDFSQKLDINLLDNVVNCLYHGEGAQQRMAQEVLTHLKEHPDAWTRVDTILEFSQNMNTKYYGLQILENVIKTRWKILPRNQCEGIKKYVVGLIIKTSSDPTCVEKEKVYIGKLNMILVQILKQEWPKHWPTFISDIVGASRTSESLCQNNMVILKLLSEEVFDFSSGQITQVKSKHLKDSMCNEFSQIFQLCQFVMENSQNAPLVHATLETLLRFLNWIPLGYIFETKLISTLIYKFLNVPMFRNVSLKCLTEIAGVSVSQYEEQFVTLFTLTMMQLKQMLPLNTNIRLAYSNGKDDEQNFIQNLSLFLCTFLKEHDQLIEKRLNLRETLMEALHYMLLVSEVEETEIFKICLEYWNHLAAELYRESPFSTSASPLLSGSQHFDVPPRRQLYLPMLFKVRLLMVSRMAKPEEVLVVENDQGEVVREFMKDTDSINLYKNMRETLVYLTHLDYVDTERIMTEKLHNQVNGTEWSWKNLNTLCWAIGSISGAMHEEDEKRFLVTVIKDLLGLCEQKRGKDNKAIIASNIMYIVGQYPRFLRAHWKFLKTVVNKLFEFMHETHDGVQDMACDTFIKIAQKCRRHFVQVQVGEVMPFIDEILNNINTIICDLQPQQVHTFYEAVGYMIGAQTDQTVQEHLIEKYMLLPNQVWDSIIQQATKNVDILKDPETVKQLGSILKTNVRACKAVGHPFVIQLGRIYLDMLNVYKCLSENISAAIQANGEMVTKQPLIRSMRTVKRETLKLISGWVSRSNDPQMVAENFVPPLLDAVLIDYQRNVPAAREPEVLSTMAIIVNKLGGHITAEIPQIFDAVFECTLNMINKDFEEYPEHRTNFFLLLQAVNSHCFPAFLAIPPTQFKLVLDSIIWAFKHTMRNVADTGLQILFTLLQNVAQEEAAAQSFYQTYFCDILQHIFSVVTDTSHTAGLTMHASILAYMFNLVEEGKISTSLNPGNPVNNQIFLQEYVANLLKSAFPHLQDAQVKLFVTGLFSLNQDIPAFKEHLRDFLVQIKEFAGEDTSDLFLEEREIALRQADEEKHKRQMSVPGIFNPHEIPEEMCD

[2] = molecular target: T1, Lipin1 (human (endogenous in NCI-H929)); experiment: co-IP; anti-Lipin1 antibody, lysates of NCI-H929 cells with or without XPO1 knockdown; addition of Ran-GTP not stated; Western blot
[3] = molecular target: Exportin-1 (XPO1) (human (endogenous in NCI-H929)) (UniProt O14980); experiment: co-IP; NCI-H929 lysates incubated with anti-XPO1 antibody in the absence of Ran-GTP; Western blot of Lipin1
[4] = molecular target: Exportin-1 (XPO1) (human (endogenous in NCI-H929)) (UniProt O14980); experiment: co-IP; NCI-H929 cell lysates, anti-XPO1 or anti-Lipin1 antibody, Protein A/G agarose beads, 4 °C overnight; each reaction supplemented with 5 μM Ran-GTP (Ran (Q69L) mutant); Western blot

binding [1]: binds
binding [2]: binds
Molecule: Exportin-1 (XPO1) (from UniProt O14980 1-1071)

binding [3]: binds
binding [4]: binds
B1: Lipin1 (protein, UniProt Q14693 1-890)
chain: T1 sequence
